Laboratory results taken from paper PMC12040169 (PLOS Biology, 2025).
The list shows a part of the results.

Test system: T1, CTL2-GFP (C. trachomatis L2/434/Bu, GFP-expressing)
T1 construct: L2/434/Bu, GFP-expressing
Design: species or system HeLa; Intracellular C. trachomatis growth in HeLa cells, bulk GFP fluorescence relative to DMSO
Conditions: bulk GFP, single well; 28.5 h, 10 µM; inhibitor

Structure (SMILES)	% of control remaining
O=C(CCN1C(=O)c2ccccc2C1=O)NC(=S)Nc1ccccc1 [CBK267595]	97.753%
CCC(=O)N1CCc2cc(C(O)CN3CCCCC3)ccc21 (stereo not drawn) [CBK283111]	112.23%
Cc1nc2ccc(C(=O)NCCCN3Cc4ccccc4C3)cc2[nH]1 [CBK283301]	122.178%
CC(C)(C)OC(=O)N1CCC(OCc2cn(-c3ccc(-n4cncn4)cc3)nn2)CC1 [CBK149477]	166.4%
CNC(=O)c1ccc(-c2ccccc2C)nc1NCCOC [CBK106007]	100%
Cc1cc(NC(=O)c2cccc(C(F)(F)F)c2)c2ccccc2n1 [CBK116263]	89.4836%
O=C(NC(N1CCCCC1)C(Cl)(Cl)Cl)c1ccc(Cl)cc1Cl (stereo not drawn) [CBK261024]	98.3408%
O=C(N1CCOCC1)C12CC3CC(CC(C3)C1)C2 [CBK089368]	96.1948%
Cc1nc[nH]c1CN(Cc1ccccc1)C1CC(C)(C)NC(C)(C)C1 [CBK283178]	117.018%
O=C(CSCc1ccc(Cl)c(Cl)c1)Nc1ncccn1 [CBK269998]	141.701%
NS(=O)(=O)c1ccc(NC(=O)CSc2nc3sc4c(c3c(=O)[nH]2)CCC4)cc1 [CBK265554]	124.553%
O=C(Cc1cccc(F)c1)NCCn1nc(-c2ccco2)ccc1=O [CBK283708]	129.269%
O=C(Nc1ccc(Oc2cccnc2)cc1)C1CCCN1 (stereo not drawn) [CBK282498]	89.0574%
CCn1ncnc1CN1CCOc2ccc(CO)cc2C1 [CBK307245]	177.541%
CN1CCC(N(C)C(=O)c2ccc(-c3ccccc3CO)cc2)C1 (stereo not drawn) [CBK307432]	99.7627%
Brc1ccc(OCCCCCCN2CCCCC2)cc1 [CBK261784]	121.31%
Cc1cc(NC(=O)C2CC2)sc1C(=O)NC(C)c1ccc(F)cc1F (stereo not drawn) [CBK296625]	149.744%
CCOC(=O)C1(Cc2cc(-c3cccc(F)c3)no2)CCNCC1 [CBK284881]	141.33%
COC(=O)CCCC(=O)n1c(=O)n(CC2CCCCC2)c2ccccc21 [CBK106524]	106.631%
CC(C)(C)c1cc(C(=O)CSc2nnc(Nc3ccccc3)n2-c2ccccc2)cc(C(C)(C)C)c1O [CBK261033]	111.716%
O=C(O)C1CC=CCC1C(=O)NCCCCc1ccccc1 (stereo not drawn) [CBK265460]	123.423%
CC1(C)OC2C(C(=O)O)OC(n3cnc4c(N)ncnc43)C2O1 (stereo not drawn) [CBK262912]	100%
Cc1ccc(C2=CCN(CC(=O)N(C)C3CCCCC3)CC2)o1 [CBK283633]	130.079%
CC(C)(CO)CNc1nc(-c2cccnc2)cnc1N [CBK063475]	149.402%
CCN(CC)CCCCC1(C)SC(NC2CCCCCC2)=NC1=O (stereo not drawn) [CBK113257]	129.621%
COc1cnc(-c2ccccc2OC)c(NC(=O)Cc2ccccc2)n1 [CBK145260]	109.754%

Structure (SMILES)	% of control remaining
Cc1ccc(CN(CCCn2ccnc2)Cc2nc3ccccc3[nH]2)o1 [CBK283103]	107.284%
c1ccc(-c2nc(-c3ccncc3)sc2-c2ccccc2)cc1 [CBK291203]	76.4317%
COc1ccc(C(=O)NCc2ccc(S(N)(=O)=O)cc2)cc1[N+](=O)[O-] [CBK263629]	92.9353%
c1cc(-c2cncc(-c3ccsc3)n2)cs1 [CBK113356]	147.303%
CSCCCNC(=O)c1cc(-c2ccc(C(=O)N3CCOCC3)cc2)cnc1N [CBK158568]	106.611%
Cc1cc(Cl)c(S(=O)(=O)N2CC(C)OC(C)C2)cc1OCC(N)=O (stereo not drawn) [CBK266452]	115.161%
Cc1ccc(S(=O)(=O)N2CCN(CCC(=O)O)CC2)cc1 [CBK269443]	94.6437%
Cc1nc2sc(C(=O)OCc3cc(=O)oc4cc5c(cc34)CCC5)c(C)c2c(=O)[nH]1 [CBK297528]	96.0527%
CCn1cc(C(=O)O)c(=O)c2cc(F)c(N3CCN(C(=S)Nc4cccc5ccccc45)CC3)cc21 [CBK265809]	100%
COc1cc(C(=O)Nc2ccc(-c3nc4ncccc4o3)cc2)ccc1OCc1ccc(Cl)cc1 [CBK033914]	105.36%
COC(=O)COc1nccnc1-c1ccc(OC(F)(F)F)cc1 [CBK106849]	147.186%
O=C(CCC1CCCC1)N1C[C@@H]2CCCCN(CC3CC3)[C@@H]2C1 [CBK285531]	102.985%
CCOc1cc(/C=N/O)ccc1OC(=O)c1cccc([N+](=O)[O-])c1 [CBK090036]	96.4198%
O=C(Nc1ccc2n(c1=O)C[C@H]1C[C@@H]2CN(C(=O)Cc2cccs2)C1)c1ccco1 [CBK289204]	105.826%
CCn1cncc1CN1CCCC(O)(c2ccc(F)cc2)CC1 (stereo not drawn) [CBK284838]	134.514%
CCOC(=O)Cn1nc(CC)n2c(cc3ccsc32)c1=O [CBK284133]	108.802%
O=C(c1nn2c(c1Br)NC(c1cccs1)CC2C(F)(F)F)N1CCCC1 (stereo not drawn) [CBK307180]	150.9%
NC(=O)[C@@H]1C[C@@H](O)[C@H](O)[C@H]2[C@@H]1N(c1ccccc1)C(=S)N2Cc1ccc(F)cc1 [CBK288928]	126.219%
CCCC/C=C/c1ccc(N2CCN(CCN(C)C)CC2)nc1 [CBK036980]	215.644%
O=C1C(c2ccccc2)=C(c2ccccc2)C(c2ccc(C3=C(c4ccccc4)C(=O)C(c4ccccc4)=C3c3ccccc3)cc2)=C1c1ccccc1 [CBK261220]	115.253%
O=C(O)c1ccc(CNC(=O)c2cnc(-c3ccc(F)cc3)c(-c3ccc(O)cc3)c2)cc1 [CBK037996]	172.185%
COC(=O)[C@H](CC1CCCCC1)NS(=O)(=O)c1ccc(C(C)C)cc1 [CBK044551]	105.807%
Cc1cc(OC(F)(F)F)ccc1S(=O)(=O)Nc1nc(CC(=O)O)cs1 [CBK000575]	106.402%
O=[N+]([O-])c1ccccc1S(=O)(=O)N1CCN(c2ccccc2)CC1 [CBK261755]	112.805%
c1ccc(OCCOc2ccc(N3CCNCC3)nn2)cc1 [CBK022577F]	109.468%
O=c1c2ccccc2nc2n1CCN(Cc1cc(F)ccc1F)CC2 [CBK284818]	126.541%

Structure (SMILES)	% of control remaining
COc1ccc(-c2nnc3[nH]c(=O)n(C)c(=O)c3n2)cc1OC [CBK263914]	103.853%
CCc1nnc2sc(-c3ccc(C)c(NC(=O)c4ccc(N5CCCCC5)c([N+](=O)[O-])c4)c3)nn12 [CBK268476]	117.318%
O=C(NC1CC1)[C@@H]1C=CCN1S(=O)(=O)c1ccccc1Cl [CBK285479]	140.899%
COCCn1c(SCc2nc3ccccc3nc2C)nc(C)c1C [CBK305651]	101.269%
Cc1nc2c(-c3ccccc3)cnn2c(N2CCCC2)c1C [CBK287799]	140.108%
COc1ccc(OCc2nc(-c3cccs3)no2)cc1 [CBK269782]	106.58%
O=C(NCCN1CCC(O)(c2cccc(F)c2)CC1)C1CCCCC1 [CBK283281]	123.307%
O=C1NC2(CCCN(C(=O)c3cccs3)C2)Oc2ccccc21 (stereo not drawn) [CBK284799]	142.906%
Cc1cccc(OCC2CCCN(C(=O)CCc3nncn3C)C2)c1 (stereo not drawn) [CBK306640]	101.434%
CN(CCc1cnn(C)c1)C(=O)NCCCN1CCCC1=O [CBK307008]	151.982%
Cn1c(OCc2cccnc2)nc2c1c(=O)n(Cc1ccc(Cl)c(Cl)c1)c(=O)n2C [CBK267498]	136.671%
O=S(=O)(Nc1nn(Cc2ccc(C(F)(F)F)cc2)c2ccccc12)c1cccc2nsnc12 [CBK048086]	117.764%
CC1CCN(C(=O)C[C@@H]2O[C@H](CNS(=O)(=O)c3ccccc3)[C@@H](O)[C@H]2O)CC1 [CBK288927]	134.529%
O=C(CC[C@@H]1CNC(=O)[C@@H]2C[C@H](NC(=O)C3CC3)CN12)Nc1ccccc1 [CBK289006]	99.5583%
Cc1ccn(CCC(=O)NC(C)c2cccnc2)n1 (stereo not drawn) [CBK282197]	119.998%
O=C(Nc1ccccc1)NC(N1CCOCC1)C(Cl)(Cl)Cl (stereo not drawn) [CBK261293]	102.385%
C=CCNC(=O)C1CCN(c2nc3ccccc3n2CC)CC1 [CBK283920]	88.6534%
CC(=O)NS(=O)(=O)c1ccc(NC(=O)CCSc2ccc(C)cc2)cc1 [CBK296141]	55.9251%
COc1ccc(N2CCN(C(=S)c3ccc(OCC(N)=O)cc3)CC2)cc1 [CBK269190]	108.878%
CC(Cn1nnc2ccccc21)C(=O)O (stereo not drawn) [CBK264727]	97.8675%
O=C(NC(Cc1ccc(O)cc1)C(=O)O)c1ccccc1 (stereo not drawn) [CBK260937]	118.048%
Cn1nccc1NS(=O)(=O)c1ccc(Br)cc1C(F)(F)F [CBK062082]	117.375%
O=C(CCc1ccncc1)N1CCC(c2cc3ncccc3[nH]2)CC1 [CBK284460]	165.11%
O=C(O)c1c2c(nc3ccccc13)CCN(Cc1ccccc1)C2 [CBK286805]	150.26%
COc1cc(NC(=O)c2cc3nc(-c4cccs4)cc(C(F)(F)Cl)n3n2)c(C(C)=O)cc1OC [CBK268312]	142.681%
CCSc1nnc2c(n1)OC(C1CC=C(C)CC1)Nc1ccccc1-2 (stereo not drawn) [CBK262367]	100%

Of the compounds above, 2 contain a tert-butyl group.
Structure (SMILES)	% of control remaining
CC(C)(C)OC(=O)N1CCC(OCc2cn(-c3ccc(-n4cncn4)cc3)nn2)CC1 [CBK149477]	166.4%
CC(C)(C)c1cc(C(=O)CSc2nnc(Nc3ccccc3)n2-c2ccccc2)cc(C(C)(C)C)c1O [CBK261033]	111.716%
